Data taken from publication doi:10.1101/2023.04.13.536796.
Read-outs that look alike come from different tables or passages of the source. No constants are given. Whether binding was seen depends on the method and setting. Binding seen in cells or lysates may run through a third protein. Some entries that bind do so weakly or less than the wild type.

By UniProt entry, the sequences of proteins in these tests, tags left out. Where a name states a change or a piece, a line headed by the entry shows the natural chain unless it says otherwise. Chains listed by the source or under a name are the forms on record and can include a tag or linker. Residues count along the entry.
SEL1L-FLAG WT (Q9UBV2, residues 22-794): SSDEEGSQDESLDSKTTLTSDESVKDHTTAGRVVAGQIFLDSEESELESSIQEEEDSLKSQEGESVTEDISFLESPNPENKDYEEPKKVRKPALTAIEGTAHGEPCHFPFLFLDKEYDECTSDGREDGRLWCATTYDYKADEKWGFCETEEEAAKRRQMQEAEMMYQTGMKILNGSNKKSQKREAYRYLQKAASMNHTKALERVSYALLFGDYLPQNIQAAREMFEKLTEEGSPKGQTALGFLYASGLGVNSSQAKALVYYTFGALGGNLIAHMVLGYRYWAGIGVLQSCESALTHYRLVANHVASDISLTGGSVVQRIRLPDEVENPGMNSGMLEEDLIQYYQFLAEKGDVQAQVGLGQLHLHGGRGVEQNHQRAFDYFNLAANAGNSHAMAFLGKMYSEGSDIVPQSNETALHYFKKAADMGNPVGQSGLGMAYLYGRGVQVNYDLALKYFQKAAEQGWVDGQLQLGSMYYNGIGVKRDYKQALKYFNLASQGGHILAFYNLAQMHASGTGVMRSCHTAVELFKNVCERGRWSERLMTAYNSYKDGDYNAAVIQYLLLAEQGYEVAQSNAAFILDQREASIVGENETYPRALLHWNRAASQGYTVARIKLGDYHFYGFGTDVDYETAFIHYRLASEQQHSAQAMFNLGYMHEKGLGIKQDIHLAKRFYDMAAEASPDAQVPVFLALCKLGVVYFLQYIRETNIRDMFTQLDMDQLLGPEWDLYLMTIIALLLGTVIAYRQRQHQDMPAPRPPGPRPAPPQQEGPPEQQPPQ
SEL1L S658P-FLAG (Q9UBV2, form named): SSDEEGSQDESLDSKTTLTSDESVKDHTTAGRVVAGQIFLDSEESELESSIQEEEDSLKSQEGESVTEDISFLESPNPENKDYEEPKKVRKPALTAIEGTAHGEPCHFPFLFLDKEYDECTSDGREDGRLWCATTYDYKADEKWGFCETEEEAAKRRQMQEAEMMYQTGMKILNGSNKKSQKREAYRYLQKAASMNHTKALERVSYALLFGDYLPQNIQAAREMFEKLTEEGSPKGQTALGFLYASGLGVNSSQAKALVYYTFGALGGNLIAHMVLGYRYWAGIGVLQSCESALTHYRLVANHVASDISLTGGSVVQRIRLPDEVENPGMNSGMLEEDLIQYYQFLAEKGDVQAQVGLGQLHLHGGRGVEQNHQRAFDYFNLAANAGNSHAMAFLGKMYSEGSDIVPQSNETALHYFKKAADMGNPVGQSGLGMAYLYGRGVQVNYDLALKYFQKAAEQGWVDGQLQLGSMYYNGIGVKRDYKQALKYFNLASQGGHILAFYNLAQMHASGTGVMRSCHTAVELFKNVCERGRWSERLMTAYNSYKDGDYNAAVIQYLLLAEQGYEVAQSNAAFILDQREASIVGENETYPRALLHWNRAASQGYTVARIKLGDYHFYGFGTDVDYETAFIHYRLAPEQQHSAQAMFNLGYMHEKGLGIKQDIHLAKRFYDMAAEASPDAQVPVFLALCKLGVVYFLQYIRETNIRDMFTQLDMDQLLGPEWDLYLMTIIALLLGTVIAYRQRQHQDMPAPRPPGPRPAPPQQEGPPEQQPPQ
SEL1L S658P/F668S-FLAG (Q9UBV2, form named): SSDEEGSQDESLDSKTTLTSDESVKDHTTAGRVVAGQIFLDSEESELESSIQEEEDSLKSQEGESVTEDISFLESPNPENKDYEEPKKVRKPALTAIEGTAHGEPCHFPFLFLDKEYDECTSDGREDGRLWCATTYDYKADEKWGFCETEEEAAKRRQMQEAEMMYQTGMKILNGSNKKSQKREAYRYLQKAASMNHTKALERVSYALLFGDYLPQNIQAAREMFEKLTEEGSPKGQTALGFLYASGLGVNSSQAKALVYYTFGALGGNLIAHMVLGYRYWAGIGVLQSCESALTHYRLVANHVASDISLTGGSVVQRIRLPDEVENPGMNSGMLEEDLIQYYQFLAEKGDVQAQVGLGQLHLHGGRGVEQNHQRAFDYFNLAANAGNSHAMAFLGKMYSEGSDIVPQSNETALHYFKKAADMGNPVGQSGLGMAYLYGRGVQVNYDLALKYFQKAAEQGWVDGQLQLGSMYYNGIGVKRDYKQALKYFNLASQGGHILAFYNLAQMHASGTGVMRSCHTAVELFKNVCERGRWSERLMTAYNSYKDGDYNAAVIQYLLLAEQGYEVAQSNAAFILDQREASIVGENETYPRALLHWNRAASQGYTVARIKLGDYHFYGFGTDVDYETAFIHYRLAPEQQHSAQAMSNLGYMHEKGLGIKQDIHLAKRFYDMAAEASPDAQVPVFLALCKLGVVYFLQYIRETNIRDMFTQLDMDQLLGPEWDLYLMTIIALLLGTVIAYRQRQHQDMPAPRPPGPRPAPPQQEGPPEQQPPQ
SEL1L S658P/F668T-FLAG (Q9UBV2, form named): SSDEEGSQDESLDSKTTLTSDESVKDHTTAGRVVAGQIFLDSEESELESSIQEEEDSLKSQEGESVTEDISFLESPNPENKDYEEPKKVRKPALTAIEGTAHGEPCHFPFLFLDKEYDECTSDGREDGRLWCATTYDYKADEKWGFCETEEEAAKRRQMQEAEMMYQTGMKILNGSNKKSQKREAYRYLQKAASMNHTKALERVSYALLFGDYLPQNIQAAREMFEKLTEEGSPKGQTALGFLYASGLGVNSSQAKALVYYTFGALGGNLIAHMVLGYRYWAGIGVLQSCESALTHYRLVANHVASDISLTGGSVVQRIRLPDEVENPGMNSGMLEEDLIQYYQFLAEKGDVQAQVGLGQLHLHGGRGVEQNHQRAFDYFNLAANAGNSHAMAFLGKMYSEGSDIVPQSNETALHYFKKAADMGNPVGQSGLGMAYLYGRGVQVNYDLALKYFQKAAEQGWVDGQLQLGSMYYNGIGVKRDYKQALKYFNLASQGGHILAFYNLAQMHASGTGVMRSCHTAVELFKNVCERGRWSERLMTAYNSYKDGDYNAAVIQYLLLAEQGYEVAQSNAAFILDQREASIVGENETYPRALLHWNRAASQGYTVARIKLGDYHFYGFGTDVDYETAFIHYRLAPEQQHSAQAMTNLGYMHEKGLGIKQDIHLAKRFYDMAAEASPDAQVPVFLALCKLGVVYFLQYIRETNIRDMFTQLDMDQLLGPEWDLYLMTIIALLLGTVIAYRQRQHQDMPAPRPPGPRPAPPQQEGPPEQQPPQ
SEL1L S658P/F668N-FLAG (Q9UBV2, form named): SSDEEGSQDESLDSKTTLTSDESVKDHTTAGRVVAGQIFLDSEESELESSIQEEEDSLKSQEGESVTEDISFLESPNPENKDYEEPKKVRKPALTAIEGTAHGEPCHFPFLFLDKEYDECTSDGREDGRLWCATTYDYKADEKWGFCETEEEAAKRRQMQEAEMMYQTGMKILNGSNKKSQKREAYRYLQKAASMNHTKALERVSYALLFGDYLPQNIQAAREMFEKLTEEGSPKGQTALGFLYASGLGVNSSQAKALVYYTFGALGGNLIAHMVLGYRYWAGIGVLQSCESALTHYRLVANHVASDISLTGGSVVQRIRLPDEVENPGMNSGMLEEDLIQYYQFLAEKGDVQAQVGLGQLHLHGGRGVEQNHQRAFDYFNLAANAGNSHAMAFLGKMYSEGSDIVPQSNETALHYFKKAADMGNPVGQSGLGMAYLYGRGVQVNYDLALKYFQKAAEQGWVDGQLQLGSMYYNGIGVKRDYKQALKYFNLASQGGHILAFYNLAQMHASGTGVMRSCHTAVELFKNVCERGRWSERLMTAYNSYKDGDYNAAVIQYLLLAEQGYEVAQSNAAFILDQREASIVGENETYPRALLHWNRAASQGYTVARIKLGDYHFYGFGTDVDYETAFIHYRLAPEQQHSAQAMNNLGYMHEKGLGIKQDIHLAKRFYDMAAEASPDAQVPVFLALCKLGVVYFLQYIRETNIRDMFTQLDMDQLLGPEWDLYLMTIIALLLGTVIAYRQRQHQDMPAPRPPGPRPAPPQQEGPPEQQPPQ
SEL1L S658P/F668M-FLAG (Q9UBV2, form named): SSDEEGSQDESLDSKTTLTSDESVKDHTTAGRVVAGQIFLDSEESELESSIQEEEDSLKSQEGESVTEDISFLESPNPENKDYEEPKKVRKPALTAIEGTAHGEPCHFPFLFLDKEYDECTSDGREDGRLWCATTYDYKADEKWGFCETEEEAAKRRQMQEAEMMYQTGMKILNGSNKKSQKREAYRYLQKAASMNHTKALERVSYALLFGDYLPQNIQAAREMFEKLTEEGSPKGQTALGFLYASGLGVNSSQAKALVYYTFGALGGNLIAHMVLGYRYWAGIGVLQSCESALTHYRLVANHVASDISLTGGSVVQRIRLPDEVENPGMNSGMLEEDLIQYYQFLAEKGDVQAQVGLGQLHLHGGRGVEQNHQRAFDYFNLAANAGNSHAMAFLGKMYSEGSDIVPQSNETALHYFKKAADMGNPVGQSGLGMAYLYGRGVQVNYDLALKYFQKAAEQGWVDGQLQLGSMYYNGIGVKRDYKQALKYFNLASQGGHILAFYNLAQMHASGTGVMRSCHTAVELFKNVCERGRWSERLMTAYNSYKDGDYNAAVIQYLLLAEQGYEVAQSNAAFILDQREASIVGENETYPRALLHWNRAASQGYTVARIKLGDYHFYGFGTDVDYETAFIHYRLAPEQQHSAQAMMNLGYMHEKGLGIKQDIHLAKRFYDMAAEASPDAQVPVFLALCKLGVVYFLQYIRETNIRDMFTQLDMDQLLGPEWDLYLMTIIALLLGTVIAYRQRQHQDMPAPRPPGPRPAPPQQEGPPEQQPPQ
SEL1L S658P/F668A-FLAG (Q9UBV2, form named): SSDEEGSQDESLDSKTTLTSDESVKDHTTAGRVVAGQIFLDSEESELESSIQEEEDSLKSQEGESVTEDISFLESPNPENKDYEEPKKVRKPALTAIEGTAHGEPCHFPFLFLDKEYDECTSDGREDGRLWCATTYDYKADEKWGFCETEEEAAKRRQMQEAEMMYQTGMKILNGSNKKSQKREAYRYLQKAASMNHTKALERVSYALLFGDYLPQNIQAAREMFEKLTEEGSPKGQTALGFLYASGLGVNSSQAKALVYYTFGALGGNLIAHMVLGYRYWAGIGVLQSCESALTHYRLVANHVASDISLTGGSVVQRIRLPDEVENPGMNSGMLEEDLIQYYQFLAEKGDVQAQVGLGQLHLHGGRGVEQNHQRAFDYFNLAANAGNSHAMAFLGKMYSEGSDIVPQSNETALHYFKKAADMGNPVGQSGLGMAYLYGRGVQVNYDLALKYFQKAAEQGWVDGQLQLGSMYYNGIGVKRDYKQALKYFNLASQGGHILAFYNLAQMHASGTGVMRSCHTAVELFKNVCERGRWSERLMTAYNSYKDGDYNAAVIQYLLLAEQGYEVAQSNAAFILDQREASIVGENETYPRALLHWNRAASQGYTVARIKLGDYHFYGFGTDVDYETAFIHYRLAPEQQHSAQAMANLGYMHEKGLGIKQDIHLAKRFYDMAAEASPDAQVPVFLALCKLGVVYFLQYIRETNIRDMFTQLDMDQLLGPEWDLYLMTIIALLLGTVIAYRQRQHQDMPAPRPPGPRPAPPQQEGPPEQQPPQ
SEL1L S658A-FLAG (Q9UBV2, form named): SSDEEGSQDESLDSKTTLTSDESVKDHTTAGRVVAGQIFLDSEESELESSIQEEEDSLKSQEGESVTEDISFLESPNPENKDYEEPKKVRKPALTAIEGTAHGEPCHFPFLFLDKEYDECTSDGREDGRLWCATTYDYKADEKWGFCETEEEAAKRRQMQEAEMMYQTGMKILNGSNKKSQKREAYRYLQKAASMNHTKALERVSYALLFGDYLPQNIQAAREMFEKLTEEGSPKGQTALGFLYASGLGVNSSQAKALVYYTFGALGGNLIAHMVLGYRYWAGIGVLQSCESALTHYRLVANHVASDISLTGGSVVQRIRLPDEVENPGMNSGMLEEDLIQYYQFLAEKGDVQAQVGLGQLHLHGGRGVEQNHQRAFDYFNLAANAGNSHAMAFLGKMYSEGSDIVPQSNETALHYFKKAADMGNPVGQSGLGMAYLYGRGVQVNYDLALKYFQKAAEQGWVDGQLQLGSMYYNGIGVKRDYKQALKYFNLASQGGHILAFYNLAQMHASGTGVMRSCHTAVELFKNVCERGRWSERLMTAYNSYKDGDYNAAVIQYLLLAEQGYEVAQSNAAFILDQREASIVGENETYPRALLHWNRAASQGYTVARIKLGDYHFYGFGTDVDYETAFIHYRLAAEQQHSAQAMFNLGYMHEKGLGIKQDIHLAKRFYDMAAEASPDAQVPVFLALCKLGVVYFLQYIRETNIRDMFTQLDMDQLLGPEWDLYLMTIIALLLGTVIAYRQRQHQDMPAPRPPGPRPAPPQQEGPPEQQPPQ

Key:
Experiment in all cases: co-IP
SEL1L-FLAG WT (human) [1] = target: SEL1L-FLAG WT (human) (UniProt Q9UBV2)
SEL1L S658P-FLAG (human) [2] = target: SEL1L S658P-FLAG (human) (UniProt Q9UBV2)
[3] = target: HRD1 (HMG-CoA reductase degradation 1), endogenous (human (endogenous in HEK293T)) (UniProt Q86TM6)
[4] = target: HRD1 (HMG-CoA reductase degradation 1), endogenous (human (endogenous in HEK293T)) (UniProt Q86TM6); remark: listed apart in the source
[5] = target: HRD1 (HMG-CoA reductase degradation 1), endogenous (human (endogenous in HEK293T)) (UniProt Q86TM6); remark: listed apart in the source
[6] = target: SEL1L S658P/F668S-FLAG (human) (UniProt Q9UBV2)
[7] = target: SEL1L S658P/F668T-FLAG (human) (UniProt Q9UBV2)
[8] = target: SEL1L S658P/F668N-FLAG (human) (UniProt Q9UBV2)
[9] = target: SEL1L S658P/F668M-FLAG (human) (UniProt Q9UBV2)
[10] = target: SEL1L S658P/F668A-FLAG (human) (UniProt Q9UBV2)
SEL1L S658A-FLAG (human) = SEL1L S658A-FLAG (human) (UniProt Q9UBV2)
SEL1L S658K-FLAG (human) = SEL1L S658K-FLAG (human) (UniProt Q9UBV2)
[11] = target: SEL1L S658P/F668Y-FLAG (human) (UniProt Q9UBV2)
SEL1L F668D-FLAG (human) = SEL1L F668D-FLAG (human) (UniProt Q9UBV2)
[12] = target: SEL1L S658P/F668W-FLAG (human) (UniProt Q9UBV2)
[13] = target: SEL1L S658P/F668H-FLAG (human) (UniProt Q9UBV2)
SEL1L F668T-FLAG (human) = SEL1L F668T-FLAG (human) (UniProt Q9UBV2)
SEL1L F668S-FLAG (human) = SEL1L F668S-FLAG (human) (UniProt Q9UBV2)
SEL1L F668C-FLAG (human) = SEL1L F668C-FLAG (human) (UniProt Q9UBV2)
SEL1L S658D-FLAG (human) = SEL1L S658D-FLAG (human) (UniProt Q9UBV2)
SEL1L F668H-FLAG (human) = SEL1L F668H-FLAG (human) (UniProt Q9UBV2)
SEL1L F668K-FLAG (human) = SEL1L F668K-FLAG (human) (UniProt Q9UBV2)
SEL1L F668M-FLAG (human) = SEL1L F668M-FLAG (human) (UniProt Q9UBV2)
SEL1L F668A-FLAG (human) = SEL1L F668A-FLAG (human) (UniProt Q9UBV2)
[14] = target: SEL1L S658P/F668D-FLAG (human) (UniProt Q9UBV2)
[15] = target: SEL1L S658P/F668C-FLAG (human) (UniProt Q9UBV2)
[16] = target: SEL1L S658P/F668K-FLAG (human) (UniProt Q9UBV2)
SEL1L F668W-FLAG (human) = SEL1L F668W-FLAG (human) (UniProt Q9UBV2)
SEL1L F668Y-FLAG (human) = SEL1L F668Y-FLAG (human) (UniProt Q9UBV2)
SEL1L F668N-FLAG (human) = SEL1L F668N-FLAG (human) (UniProt Q9UBV2)
SEL1L-FLAG WT (human) [17] = target: SEL1L-FLAG WT (human) (UniProt Q9UBV2); remark: listed apart in the source
SEL1L S658P-FLAG (human) [18] = target: SEL1L S658P-FLAG (human) (UniProt Q9UBV2); remark: listed apart in the source

Measured: binding

B1: UBE2J1, endogenous (enzyme, UniProt Q9Y385 1-318)
chain: METRYNLKSPAVKRLMKEAAELKDPTDHYHAQPLEDNLFEWHFTVRGPPDSDFDGGVYHGRIVLPPEYPMKPPSIILLTANGRFEVGKKICLSISGHHPETWQPSWSIRTALLAIIGFMPTKGEGAIGSLDYTPEERRALAKKSQDFCCEGCGSAMKDVLLPLKSGSDSSQADQEAKELARQISFKAEVNSSGKTISESDLNHSFSLTDLQDDIPTTFQGATASTSYGLQNSSAASFHQPTQPVAKNTSMSPRQRRAQQQSQRRLSTSPDVIQGHQPRDNHTDHGGSAVLIVILTLALAALIFRRIYLANEYIFDFEL
binds: SEL1L-FLAG WT (human) [1] | SEL1L S658P-FLAG (human) [2]

B2: DERL2, endogenous (protein, UniProt Q9GZP9 1-239)
chain: MAYQSLRLEYLQIPPVSRAYTTACVLTTAAVQLELITPFQLYFNPELIFKHFQIWRLITNFLFFGPVGFNFLFNMIFLYRYCRMLEEGSFRGRTADFVFMFLFGGFLMTLFGLFVSLVFLGQAFTIMLVYVWSRRNPYVRMNFFGLLNFQAPFLPWVLMGFSLLLGNSIIVDLLGIAVGHIYFFLEDVFPNQPGGIRILKTPSILKAIFDTPDEDPNYNPLPEERPGGFAWGEGQRLGG
binds: SEL1L-FLAG WT (human) [1] | SEL1L S658P-FLAG (human) [2]

B3: FAM8A1 (Family with sequence similarity 8 member A1), endogenous (protein, UniProt Q9UBU6 1-413)
chain: MAEGPEEARGHPPGQDDGGGDHEPVPSLRGPPTTAVPCPRDDPQAEPQAPGRPTAPGLAAAAAADKLEPPRELRKRGEAASGSGAELQEQAGCEAPEAAAPRERPARLSAREYSRQVHEWLWQSYCGYLTWHSGLAAFPAYCSPQPSPQSFPSGGAAVPQAAAPPPPQLGYYNPFYFLSPGAAGPDPRTAAGISTPAPVAGLGPRAPHVQASVRATPVTRVGSAAPSRSPSETGRQAGREYVIPSLAHRFMAEMVDFFILFFIKATIVLSIMHLSGIKDISKFAMHYIIEEIDEDTSMEDLQKMMVVALIYRLLVCFYEIICIWGAGGATPGKFLLGLRVVTCDTSVLIAPSRVLVIPSSNVSITTSTIRALIKNFSIASFFPAFITLLFFQHNRTAYDIVAGTIVVKRNGVR
binds: [3] | [4] | [5]

B4: OS9 (Osteosarcoma amplified 9), endogenous (protein, UniProt Q13438 26-667)
chain: GGVGSLNLEELSEMRYGIEILPLPVMGGQSQSSDVVIVSSKYKQRYECRLPAGAIHFQREREEETPAYQGPGIPELLSPMRDAPCLLKTKDWWTYEFCYGRHIQQYHMEDSEIKGEVLYLGYYQSAFDWDDETAKASKQHRLKRYHSQTYGNGSKCDLNGRPREAEVRFLCDEGAGISGDYIDRVDEPLSCSYVLTIRTPRLCPHPLLRPPPSAAPQAILCHPSLQPEEYMAYVQRQADSKQYGDKIIEELQDLGPQVWSETKSGVAPQKMAGASPTKDDSKDSDFWKMLNEPEDQAPGGEEVPAEEQDPSPEAADSASGAPNDFQNNVQVKVIRSPADLIRFIEELKGGTKKGKPNIGQEQPVDDAAEVPQREPEKERGDPERQREMEEEEDEDEDEDEDEDERQLLGEFEKELEGILLPSDRDRLRSEVKAGMERELENIIQETEKELDPDGLKKESERDRAMLALTSTLNKLIKRLEEKQSPELVKKHKKKRVVPKKPPPSPQPTEEDPEHRVRVRVTKLRLGGPNQDLTVLEMKRENPQLKQIEGLVKELLEREGLTAAGKIEIKIVRPWAEGTEEGARWLTDEDTRNLKEIFFNILVPGAEEAQKERQRQKELESNYRRVWGSPGGEGTGDLDEFDF
binds: [6] | [7] | [8] | [9] | [10] | SEL1L S658A-FLAG (human) | SEL1L S658K-FLAG (human) | [11] | SEL1L F668D-FLAG (human) | SEL1L-FLAG WT (human) [1] | [12] | [13] | SEL1L F668T-FLAG (human) | SEL1L F668S-FLAG (human) | SEL1L F668C-FLAG (human) | SEL1L S658D-FLAG (human) | SEL1L F668H-FLAG (human) | SEL1L F668K-FLAG (human) | SEL1L F668M-FLAG (human) | SEL1L F668A-FLAG (human) | [14] | SEL1L S658P-FLAG (human) [2] | [15] | [16] | SEL1L F668W-FLAG (human) | SEL1L F668Y-FLAG (human) | SEL1L F668N-FLAG (human) | SEL1L-FLAG WT (human) [17] | SEL1L S658P-FLAG (human) [18]
